Test results published in PubChem BioAssay AID256 (DTP/NCI, 2004).
The list does not hold the whole screen: it is rich in T/C values a quarter to a half above the control, in often repeated tests (any T/C) and in doses without a T/C. Other doses and runs of a compound stand elsewhere. T/C is the treated group as % of the vehicle group. Some doses have a count of surviving animals in place of a T/C: the source files T/C as zero there, which appears to mark a toxic dose or a test without result, not a measured value. Some survivor counts are full or nearly so, which does not show that the dose was tolerated: the source hardly ever lists a survival T/C far under the control, and the zero likely stands for such cases as well. Counts of survivors are from the toxicity check (mostly the fifth day) where no day follows; animals may have died later. Schedules are NCI's codes, read here as Q, the interval in days (D) or hours (H), X, the number of doses. Some entries hold several experiments; their values stand side by side, smallest first. For survival time, the PubChem record calls one and a half times the control and up active, and a quarter to a half above the control has no call in these data; cut-offs in other NCI protocols can differ. Signs of the kind (2×) stand for listed records that agree. Some T/C values are followed by the survivors on the day toxicity was checked, most often the fifth; without a count, all were alive then.

System: CD2F1 mice, L1210 leukemia ip, survival T/C
Assay: NCI In Vivo Anticancer Drug Screen. Data for tumor model L1210 Leukemia (intraperitoneal) in CD2F1 (CDF1) mice
Conditions: higher T/C = longer survival
Summary of the method: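 Ratio T/C, where T is the treated-group value and C the vehicle-dosed control value, from mice implanted with a transplantable tumor.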

[1] = T/C endpoint: mean survival time, dose: 200.0 mg/kg/injection, schedule: Q01DX001 (ip), vehicle: saline with Tween-80
[2] = T/C endpoint: mean survival time, dose: 12.5 mg/kg/injection, schedule: Q04DX003 (ip), vehicle: saline
[3] = T/C endpoint: mean survival time, dose: 100.0 mg/kg/injection, schedule: Q01DX009 (ip), vehicle: saline with Tween-80

BrC1(C2(Br)N(c3ccccc3)CCN2c2ccccc2)N(c2ccccc2)CCN1c1ccccc1
survivor count (T/C endpoint: mean survival time, dose: 75.0 mg/kg/injection, schedule: Q01DX001 (ip), vehicle: saline): 2 of 6 | survivor count (T/C endpoint: mean survival time, dose: 150.0 mg/kg/injection, schedule: Q01DX001 (ip), vehicle: saline): 0 of 6 | survivor count (T/C endpoint: mean survival time, dose: 300.0 mg/kg/injection, schedule: Q01DX001 (ip), vehicle: saline): 0 of 6

O=C(NNC1CCCCC1)c1ccccc1
survivor count (T/C endpoint: mean survival time, dose: 200.0 mg/kg/injection, schedule: Q01DX009 (ip), vehicle: acetone): 1 of 6 | survivor count (T/C endpoint: mean survival time, dose: 400.0 mg/kg/injection, schedule: Q01DX009 (ip), vehicle: acetone): 0 of 6

O=S(=O)(F)c1ccc(O)cc1
survivor count [1]: 3 of 6 | survivor count (T/C endpoint: mean survival time, dose: 200.0 mg/kg/injection, schedule: Q04DX002 (ip), vehicle: saline with Tween-80): 1 of 3 and 3 of 6 | survivor count (T/C endpoint: mean survival time, dose: 400.0 mg/kg/injection, schedule: Q04DX002 (ip), vehicle: saline with Tween-80): 0 of 3 and 0 of 6

O=C1C(N2CCCC2)=C(N2CC2)C(=O)C(N2CCCC2)=C1N1CC1
T/C (T/C endpoint: mean survival time, dose: 1.56 mg/kg/injection, schedule: Q04DX003 (ip), vehicle: saline): 105, 109, 117, 122 % of control | T/C (T/C endpoint: mean survival time, dose: 3.12 mg/kg/injection, schedule: Q04DX003 (ip), vehicle: saline): 114, 129, 135, 136 % of control | T/C (T/C endpoint: mean survival time, dose: 6.25 mg/kg/injection, schedule: Q04DX003 (ip), vehicle: saline): 145, 146, 153, 170 % of control | T/C [2]: 90, 93, 110 % of control | survivor count [2]: 2 of 6

CCC(=O)OC1(c2ccccc2)CCN(CCCc2ccccc2Cl)CC1
T/C (T/C endpoint: mean survival time, dose: 12.5 mg/kg/injection, schedule: Q04DX002 (ip), vehicle: saline with Tween-80): 128 % of control | survivor count [1]: 0 of 6 | survivor count (T/C endpoint: mean survival time, dose: 400.0 mg/kg/injection, schedule: Q01DX001 (ip), vehicle: saline with Tween-80): 0 of 6

COc1cccc2c1C(=O)c1c(O)c3c(c(O)c1C2=O)C[C@@](O)(C(O)CO)C[C@@H]3OC1CC(N(Cc2ccccc2)Cc2ccccc2)C(O)C(C)O1 (stereo not given in full)
T/C (T/C endpoint: median survival time, dose: 12.5 mg/kg/injection, schedule: Q01DX009 (ip), vehicle: water): 127 % of control | T/C (T/C endpoint: median survival time, dose: 25.0 mg/kg/injection, schedule: Q01DX009 (ip), vehicle: water): 134 % of control (2×) | T/C (T/C endpoint: median survival time, dose: 50.0 mg/kg/injection, schedule: Q01DX009 (ip), vehicle: water): 144 and 145 % of control | survivor count (T/C endpoint: median survival time, dose: 200.0 mg/kg/injection, schedule: Q01DX009 (ip), vehicle: water): 3 of 6 | survivor count (T/C endpoint: median survival time, dose: 400.0 mg/kg/injection, schedule: Q01DX009 (ip), vehicle: water): 1 of 6

O=[N+]([O-])c1ccc(N2CCOCC2)c2c1no[n+]2[O-]
survivor count (T/C endpoint: median survival time, dose: 200.0 mg/kg/injection, schedule: Q01DX009 (ip), vehicle: saline with Tween-80): 4 of 6

N#Cc1ccc(CCl)cc1
survivor count (T/C endpoint: mean survival time, dose: 200.0 mg/kg/injection, schedule: Q01DX009 (ip), vehicle: Klucel (hydroxypropylcellulose) (HPC)): 3 of 3

O=C1OCC/C1=C1/CCOC1
survivor count [3]: 0 of 3

Fc1ccc2c(c1)C(Br)c1ccccc1-2 (stereo not given)
survivor count [3]: 2 of 6 | survivor count (T/C endpoint: mean survival time, dose: 200.0 mg/kg/injection, schedule: Q01DX009 (ip), vehicle: saline with Tween-80): 0 of 6 | survivor count (T/C endpoint: mean survival time, dose: 400.0 mg/kg/injection, schedule: Q01DX009 (ip), vehicle: saline with Tween-80): 0 of 6

N=c1c2ncn(C3CCCC3)c2ncn1Cc1ccc([N+](=O)[O-])cc1
survivor count (T/C endpoint: mean survival time, dose: 150.0 mg/kg/injection, schedule: Q01DX001 (ip), vehicle: other): 1 of 6 | survivor count (T/C endpoint: mean survival time, dose: 300.0 mg/kg/injection, schedule: Q01DX001 (ip), vehicle: other): 0 of 6

CN(C)N=Nc1ccccc1[N+](=O)[O-]
T/C (T/C endpoint: mean survival time, dose: 119.0 mg/kg/injection, schedule: Q01DX009 (ip), vehicle: saline): 143 % of control [5 of 6 alive] | survivor count (T/C endpoint: mean survival time, dose: 178.0 mg/kg/injection, schedule: Q01DX001 (ip), vehicle: saline): 3 of 6 | survivor count (T/C endpoint: mean survival time, dose: 178.0 mg/kg/injection, schedule: Q01DX009 (ip), vehicle: saline): 4 of 6 | T/C (T/C endpoint: mean survival time, dose: 267.0 mg/kg/injection, schedule: Q01DX001 (ip), vehicle: saline): 138 % of control [4 of 6 alive] | survivor count (T/C endpoint: mean survival time, dose: 267.0 mg/kg/injection, schedule: Q01DX009 (ip), vehicle: saline): 4 of 6 | survivor count (T/C endpoint: mean survival time, dose: 400.0 mg/kg/injection, schedule: Q01DX001 (ip), vehicle: saline): 3 of 6
